Measurements reported in PubChem BioAssay AID1259327 (Drosophila RNAi Screening Center, 2017)
The deposit covers about 3,100 reagents; this is a random part of them. 378 of all reagents (12%) count as active. 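Hits include both directions; z-score sign shows ATP rise or fall; raw luminescence values are not plate-normalised.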 Unmarked entries are inactive. A plus sign joins genes that one reagent is predicted to hit. The record does not give: the amount of reagent.

Assay: 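Baseline ATP after transmembrane-protein gene knock-down with water vehicle only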
Cells: Drosophila S2R+ cells
Reagents: long dsRNA against Drosophila genes
Timing: 5 days (water added on day 4, read one day later)
Challenge: water added as vehicle, no metal, one day before read-out
Measured: 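Total ATP measured by luciferase light, scaled to plate mean, duplicates averaged, then z-scored across plates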
Scale: ATP z-score: higher = more total ATP than typical wells; ATP luminescence: higher = more total ATP
Call rule: 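a hit is any knock-down whose absolute ATP z-score is greater than 1.5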
Calls: active = hit: ATP up or down; inactive = no clear ATP change

no.	gene	PubChem SID	ATP z-score, duplicate mean	ATP luminescence, replicate 1 (RLU)	ATP luminescence, replicate 2 (RLU)
1	CG3168 (GeneID 31612)	SID104198079	-1.82 (active)	5.43e5	4.94e5
2	CG3168 (GeneID 31612)	SID104204027	0.551	1.01e6	7.80e5
3	CG4476 (GeneID 39056)	SID104190216	-0.412	9.04e5	7.83e5
4	CG4476 (GeneID 39056)	SID104203908	0.278	9.49e5	7.72e5
5	side-VIII (GeneID 37310)	SID104202544	0.9	7.16e5	5.95e5
6	side-VIII (GeneID 37310)	SID104206897	-0.685	7.57e5	7.25e5
7	Coq2 (GeneID 40988)	SID104208203	1.01	1.01e6	8.84e5
8	Coq2 (GeneID 40988)	SID104217012	2.16 (active)	6.32e5	5.62e5
9	Afg3l2 (GeneID 39922)	SID104190449	0.0188	7.65e5	7.00e5
10	Afg3l2 (GeneID 39922)	SID104208525	0.193	5.18e5	6.75e5
11	Fili (GeneID 5740472)	SID104183699	-0.582	6.78e5	6.81e5
12	Fili (GeneID 5740472)	SID104183924	-0.219	6.87e5	7.18e5
13	Fili (GeneID 5740472)	SID104184237	0.377	7.56e5	7.76e5

An excerpt from the list above:
no.	gene	PubChem SID	ATP z-score, duplicate mean	ATP luminescence, replicate 1 (RLU)	ATP luminescence, replicate 2 (RLU)
1	CG3168 (GeneID 31612)	SID104198079	-1.82 (active)	5.43e5	4.94e5
2	CG3168 (GeneID 31612)	SID104204027	0.551	1.01e6	7.80e5
3	CG4476 (GeneID 39056)	SID104190216	-0.412	9.04e5	7.83e5
4	CG4476 (GeneID 39056)	SID104203908	0.278	9.49e5	7.72e5
5	side-VIII (GeneID 37310)	SID104202544	0.9	7.16e5	5.95e5

Continued:
no.	gene	PubChem SID	ATP z-score, duplicate mean	ATP luminescence, replicate 1 (RLU)	ATP luminescence, replicate 2 (RLU)
14	CG42826 (GeneID 10178905)	SID104190474	-0.112	9.14e5	8.50e5
15	Octalpha2R (GeneID 42258)	SID104193111	-0.32	3.04e5	6.78e5
16	Octalpha2R (GeneID 42258)	SID104195106	0.486	3.04e5	8.59e5
17	bon + CG15923	SID104217132	0.551	4.67e5	5.40e5
18	nAChRalpha5 (GeneID 34826)	SID104181738	-1.04	6.73e5	5.61e5
19	Oatp74D (GeneID 39954)	SID104189283	0.336	5.71e5	8.20e5
20	Oatp74D (GeneID 39954)	SID104190675	-0.711	6.84e5	6.25e5
21	T48 (GeneID 43235)	SID104196670	0.761	5.82e5	6.85e5
22	Ykt6 (GeneID 31706)	SID104204561	0.0703	8.42e5	8.76e5
23	Dscam1 (GeneID 35652)	SID104187199	-1.07	4.64e5	5.82e5
24	Dscam1 (GeneID 35652)	SID104201275	-0.572	5.86e5	4.76e5
25	Dscam1 (GeneID 35652)	SID104207645	1.27	9.39e5	1.01e6
26	CG42329 (GeneID 33312)	SID104180474	-0.636	5.89e5	6.89e5
27	spdo (GeneID 318559)	SID104193780	-0.579	8.30e5	8.10e5
28	spdo (GeneID 318559)	SID104203087	0.496	9.13e5	8.54e5
